Assay results as given in patent US5795718, “Detection of complementary nucleotide sequences” (Boehringer Mannheim Corporation).

Biological target: T1, BamHI (UniProt P23940)
T1 sequence (looked up, limits assumed): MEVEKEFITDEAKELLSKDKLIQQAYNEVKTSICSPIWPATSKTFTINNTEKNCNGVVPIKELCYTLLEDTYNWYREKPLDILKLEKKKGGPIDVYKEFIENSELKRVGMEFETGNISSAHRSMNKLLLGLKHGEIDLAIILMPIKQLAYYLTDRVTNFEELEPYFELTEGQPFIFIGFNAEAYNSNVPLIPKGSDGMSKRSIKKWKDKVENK
Experiment: enzyme reaction in vitro
Conditions: 5' amine linker SMCC-conjugated to ED4 peptide, no change in complementation rate, purified native protein, single-stranded DNA

| Sequence | activity on this sequence (single-stranded probe not cleaved, variant of ED4-BP-1/M13 mp18 hybrid) | activity on this sequence |
| --- | --- | --- |
| GAGGATCCCCGGGTACCGAGCTCG [ED4-BP-1] | not active |  |
| TTTTTTTTTTTTTTTTTTTT [ED4-T20] |  | not active |

No signal at the amounts used counts as a negative. Tags and fusion partners may be left off the protein sequences shown.
